# Results taken from the supplement of paper PMC10338343.
# ± gives the standard deviation. The entries are a selection whose mix differs from that of the whole data set. Many of these values have a large error.
# Key:
# [1] = test system: MILI (PIWIL2) piRISC loaded with piRNA #1 (26 nt); assay: pre-steady-state target cleavage rate (min^-1); higher = faster piRNA-guided slicing of the target; conditions: guide: piRNA #1 5'p-UGAGGUAGUAGGUUGUAUAGUAUCCA; auxiliary factor: 500 nM mouse GTSF1;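 further: 1 nM active piRISC with 0.1 nM target library at 33 °C single turnover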
# Procedure, shortened: (§1)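 At 33 °C in HEPES–potassium acetate buffer, a transcribed, DNA-blocked target RNA library […] was exposed for 0–8 or 0–960 min to 1 nM active affinity-purified piRISC carrying a single synthetic guide, with or without 500 nM GTSF1 partner protein. Uncleaved targets were sequenced and normalised to depth and to weakly complementary targets. With three trials pooled and k3 capped at 0.0001 min^-1, a burst-and-steady-state fit produced the pre-steady-state cleavage rate.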
# [2] = test system: EfPiwi piRISC loaded with piRNA #1 (26 nt); assay: pre-steady-state target cleavage rate (min^-1); guide: piRNA #1 5'p-UGAGGUAGUAGGUUGUAUAGUAUCCA; MIWI and MILI are mouse PIWI proteins and EfPiwi is from a freshwater sponge; tags in brackets are library labels; higher = faster piRNA-guided slicing of the target; conditions: auxiliary factor: 500 nM Ephydatia muelleri Gtsf1
# Procedure, shortened: as §1
Sequence,pre-steady-state target cleavage rate [1],pre-steady-state target cleavage rate [2]
GGAGACCUUACUAUACAACCACUACCUCA,0.00164 ± 0.0048,0.0103 ± 0.0057
GGAGUGGAUACUAUACAAGCAACUACCUCA,0.00874 ± 0.0017,0.00256 ± 0.0013
GGAGACGAUACUAUACAACCUACUAGCACA,0.00848 ± 0.0055,0.00326 ± 0.0016
GGAGUGGAUACUAUACUAGCUACUACCUCA,0.158 ± 0.011,0.0081 ± 0.0031
GGAGACCUAUGAUAUGUCCCUACUACCUCA,0.000109 ± 0.033,0.000909 ± 0.008
GGAGACCUAUGAAUAGAACCUACUAGCUCA,0.000213 ± 0.013,< 0.0001
GGAGACCUUACUAUAGAACCUAGUACCUCA,0.00154 ± 0.0026,0.00228 ± 0.0041
GGAGACCAUACUAUACAACCAACUUCCUCA,0.00585 ± 0.003,0.00509 ± 0.0046
GGAGAGGAUACUAUACAUGGAUGAUGGAGA [g14:g25:cont:t1A],0.000308 ± 0.01,0.000222 ± 0.017
GGAGACCUAACUAUAAAACCUACUACCUCA,0.0772 ± 0.013,0.000796 ± 0.0089
GGAGACGAUACUAUACAUCCUACUACCUCA,0.289 ± 0.024,0.00772 ± 0.0032
GGAGACCUAUGAUUACAAGCAACUACCUCA,0.00158 ± 0.0042,0.00106 ± 0.007
GGAGUGGAUACUAUACAACCUUGAACCUCA,0.000195 ± 0.012,0.00462 ± 0.0029
GGAGACCUAACUAUACAACCAACUACCACA,0.00316 ± 0.0049,0.00152 ± 0.0096
GGAGACGAUACCAUACAACCUACUACCUCA,0.236 ± 0.027,0.124 ± 0.045
GGAGAGGAUACUAUACAACCUACAACGUCA,0.0017 ± 0.0039,0.00371 ± 0.0017
GGAGACCUAACUAUAGAACCAACUACCUCA,0.000782 ± 0.013,0.000489 ± 0.016
GGAGACCUAACUAUACAACCUACUAGCUGA,0.00434 ± 0.0053,0.00306 ± 0.0047
GGAGAGGAUACUAUACUACCUACUACGUCA,0.0806 ± 0.01,0.00184 ± 0.0025
GGAGACCUUACUAUACAUCCUUCUACCUCA,0.0405 ± 0.0086,0.00288 ± 0.0037
GGAGUGGAUACUAUACAACCUACUUGGAGA [g7:g26:cont:t1A],0.000226 ± 0.013,0.00179 ± 0.002
GGAGACCUAUCUAUACUAGCUACUACCUCA,0.0865 ± 0.011,0.000542 ± 0.0051
GGAGACCUAUGAUAACAACCAUACUACCUCA,0.000752 ± 0.0096,0.000244 ± 0.013

# Another view of some results above:
Sequence | pre-steady-state target cleavage rate [1] | pre-steady-state target cleavage rate [2]
GGAGUGGAUACUAUACAACCUUGAACCUCA | 0.000195 ± 0.012 | 0.00462 ± 0.0029
GGAGACCUAACUAUACAACCAACUACCACA | 0.00316 ± 0.0049 | 0.00152 ± 0.0096

# Next results

Sequence,pre-steady-state target cleavage rate [1],pre-steady-state target cleavage rate [2]
GGAGACCUAUGAUAUGAAGCUACUACCUCA,0.000179 ± 0.016,0.00145 ± 0.0047
GGAGACCUAUGAAUACAACACUACUACCUCA,0.000449 ± 0.015,0.000564 ± 0.0092
GGAGACGAUACUUUACAACCUUCUACCUCA,0.00805 ± 0.0018,0.00188 ± 0.0031
GGAGACCAUAGUAUACAAGCUACUACCUCA,0.16 ± 0.015,0.00148 ± 0.0031
GGAGAGGAUACUAUACAACCUACUACCUCG [g2:g25:cont:t1G],0.175 ± 0.015,0.143 ± 0.048
GGAGACGAUACUAUACAAGCUACUACCUCA,0.269 ± 0.016,0.00854 ± 0.0028
GGAGACCUAUGAUUAGAACCUACAACCUCA,0.000147 ± 0.032,0.000262 ± 0.023
GGAGACCUAUGAUAUCAACCUCACUACCUCA,0.000395 ± 0.0082,0.000253 ± 0.013
GGAGACCAUACUAUACAACCAACAACCUCA,0.00287 ± 0.0039,0.000766 ± 0.0089
GGAGAGGAUACUAUACAAUCUACUACCUCA,0.129 ± 0.0097,0.0116 ± 0.0062
GGAGACCUAUGAUAUCAACGAACUACCUCA,0.000223 ± 0.014,0.000184 ± 0.019
GGAGUGGAUACAAUUCAACCUACUACCUCA,0.178 ± 0.0092,0.00367 ± 0.0038
GGAGUGGAAACUAUACAACCUACUAGCUCA,0.0453 ± 0.013,0.00278 ± 0.0045
GGAGACCUAUCUAUACAACCAACUAGCUCA,0.00248 ± 0.0039,0.000814 ± 0.0064
GGAGACCUUACUAUACAACCUAGAACCUCA,0.00842 ± 0.0033,0.00138 ± 0.0073
GGAGACCAUACUAUACAACCUACUAGGACA,0.00119 ± 0.0072,0.00202 ± 0.0053
GGAGACCUAUGAUAACAAUCUACUACCUCA,0.00209 ± 0.0034,0.000278 ± 0.0082
GGAGACCAUACUAUACAACCUACUUCCUCA,0.114 ± 0.018,0.00455 ± 0.002
GGAGUCGAUACUAUACAACCUAGUACCUCA,0.0166 ± 0.0031,0.00334 ± 0.0014
GGAGACCUAUGAUAUCAACCUAGAUGGAGA [g9:g15:cont:t1A],0.000695 ± 0.0064,0.000714 ± 0.0071
GGAGACCUUAGUAUACAACCUUCUACCUCA,0.00489 ± 0.0033,0.000906 ± 0.005
GGAGACCUAUGAUAUGAUACCUACUACCUCA,0.000217 ± 0.011,0.000765 ± 0.0072
GGAGACCUAACAAUACAACCUACUACGUCA,0.023 ± 0.0089,0.00201 ± 0.0066
